Measurements: publication PMC10845154
Results are given in words; binding and its absence hold for the method and conditions named. Binding seen in cells or lysates may run through a third protein. Some results given as binding are weak or reduced against the parent protein; the word gives no strength.

T1: ISOFLAVONE SYNTHASE2 (GmIFS2) (soybean (Glycine max)) (UniProt Q9SWR5)
T1 sequence: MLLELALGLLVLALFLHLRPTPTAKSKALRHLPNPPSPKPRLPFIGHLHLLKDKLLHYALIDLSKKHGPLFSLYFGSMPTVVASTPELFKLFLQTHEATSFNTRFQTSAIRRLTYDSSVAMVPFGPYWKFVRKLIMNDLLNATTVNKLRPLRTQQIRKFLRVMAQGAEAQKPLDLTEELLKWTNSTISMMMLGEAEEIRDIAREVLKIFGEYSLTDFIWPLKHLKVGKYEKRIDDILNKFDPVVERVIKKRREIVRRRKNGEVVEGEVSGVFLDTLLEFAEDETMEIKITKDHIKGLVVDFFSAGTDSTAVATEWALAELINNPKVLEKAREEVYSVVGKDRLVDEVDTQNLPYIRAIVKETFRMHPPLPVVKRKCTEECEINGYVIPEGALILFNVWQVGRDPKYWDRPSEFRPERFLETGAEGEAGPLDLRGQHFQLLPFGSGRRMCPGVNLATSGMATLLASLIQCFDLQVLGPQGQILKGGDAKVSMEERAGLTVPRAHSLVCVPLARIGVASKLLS


Key:
[1] = target: T1, ISOFLAVONE SYNTHASE2 (GmIFS2) (soybean (Glycine max)); assay: split reporter; BiFC: GmADT-YC (or AtADT5, PvMATE8-YC, AtCRA1-YC) co-expressed with GmIFS2-YN in N. benthamiana leaves, 1:1 (v/v) co-infiltration, 35S promoter, confocal microscopy 48 h post-infiltration (Figure 7)
[2] = target: T1, ISOFLAVONE SYNTHASE2 (GmIFS2) (soybean (Glycine max)); assay: split reporter; BiFC, reciprocal combination: GmADT-YN co-expressed with GmIFS2-YC in N. benthamiana leaves, confocal microscopy 48 h post-infiltration (Supplementary Figure 1)

| binding [1] | binding [2] | Binder |
| --- | --- | --- |
| binds | binds | Arabidopsis ADT, AtADT5 (enzyme, UniProt Q9FNJ8 39-425) CSYRSESFSFPNGVGSSRADWQSSCAILASKVVSAENSSSVAVVNGHSNGSVDLSLVPSKSQHNGKPGLIQPLTITDLSPAPSHGSTLRVAYQGVPGAYSEAAAGKAYPNSEAIPCDQFDVAFQAVELWIADRAVLPVENSLGGSIHRNYDLLLRHRLHIVGEVQIPVHHCLLALPGVRTDCITRVISHPQALAQTEGSLNKLTPKAAIEAFHDTAAAAEYIAANNLHDTAAVASARAAELYGLQILADGIQDDAGNVTRFLMLARDPIIPRTDRPFKTSIVFAAQEHKGTSVLFKVLSAFAFRNISLTKIESRPHQNCPVRVVGDENVGTSKHFEYTFYVDFEASMAEARAQNALAEVQEYTSFLRVLGSYPMDMTPWSTLPSEDV |
| no binding |  | Arabidopsis seed storage protein CRUCIFERIN1 (AtCRA1) (protein, UniProt P15455 25-472) QGQQGQQFPNECQLDQLNALEPSHVLKSEAGRIEVWDHHAPQLRCSGVSFARYIIESKGLYLPSFFNTAKLSFVAKGRGLMGKVIPGCAETFQDSSEFQPRFEGQGQSQRFRDMHQKVEHIRSGDTIATTPGVAQWFYNDGQEPLVIVSVFDLASHQNQLDRNPRPFYLAGNNPQGQVWLQGREQQPQKNIFNGFGPEVIAQALKIDLQTAQQLQNQDDNRGNIVRVQGPFGVIRPPLRGQRPQEEEEEEGRHGRHGNGLEETICSARCTDNLDDPSRADVYKPQLGYISTLNSYDLPILRFIRLSALRGSIRQNAMVLPQWNANANAILYVTDGEAQIQIVNDNGNRVFDGQVSQGQLIAVPQGFSVVKRATSNRFQWVEFKTNANAQINTLAGRTSVLRGLPLEVITNGFQISPEEARRVKFNTLETTLTHSSGPASYGRPRVAAA |
